Assay results reported in article PMC5991658.
Results are given in words; binding and its absence hold for the method and conditions named. Some binding calls cover weakened binding; strength is not graded here.

T1: ZIPT-7.1 lacking the last 21 C-terminal amino acids (split-ubiquitin bait) (C. elegans) (UniProt Q9XUC4)
T1 sequence: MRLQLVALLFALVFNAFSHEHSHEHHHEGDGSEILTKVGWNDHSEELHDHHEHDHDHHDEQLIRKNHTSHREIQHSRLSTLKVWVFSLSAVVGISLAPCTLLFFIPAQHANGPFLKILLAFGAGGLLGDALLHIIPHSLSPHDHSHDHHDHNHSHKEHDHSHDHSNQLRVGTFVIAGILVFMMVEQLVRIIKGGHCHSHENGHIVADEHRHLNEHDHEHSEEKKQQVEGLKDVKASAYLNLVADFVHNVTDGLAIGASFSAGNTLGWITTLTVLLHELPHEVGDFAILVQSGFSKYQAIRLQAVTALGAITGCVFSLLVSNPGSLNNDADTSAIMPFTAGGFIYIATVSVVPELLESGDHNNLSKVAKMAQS


Molecular target: T1, ZIPT-7.1 lacking the last 21 C-terminal amino acids (split-ubiquitin bait) (C. elegans)
Assay: two-hybrid; split-ubiquitin yeast two-hybrid (DUALmembrane kit, Dualsystems Biotech) in yeast NMY51; ZIPT-7.1 on the bait plasmid pBT3-STE, other proteins on prey plasmids; growth on synthetic medium lacking Trp, Leu, His and Ade at three plating dilutions

Binder	binding
SPE-4 (protein, UniProt Q01608 1-465) MDTLRSISSELVRSSQLRWTLFSVIANMSLTLSIWIGVYNMEVNSELSKTYFLDPSFEQTTGNLLLDGFINGVGTILVLGCVSFIMLAFVLFDFRRIVKAWLTLSCLLILFGVSAQTLHDMFSQVFDQDDNNQYYMTIVLIVVPTVVYGFGGIYAFFSNSSLILHQIFVVTNCSLISVFYLRVFPSKTTWFVLWIVLFWDLFAVLAPMGPLKKVQEKASDYSKCVLNLIMFSANEKRLTAGSNQEETNEGEESTIRRTVKQTIEYYTKREAQDDEFYQKIRQRRAAINPDSVPTEHSPLVEAEPSPIELKEKNSTEELSDDESDTSETSSGSSNLSSSDSSTTVSTSDISTAEECDQKEWDDLVSNSLPNNDKRPATAADALNDGEVLRLGFGDFVFYSLLIGQAAASGCPFAVISAALGILFGLVVTLTVFSTEESTTPALPLPVICGTFCYFSSMFFWEQLYG	binds
SPE-6 (protein, UniProt Q95PZ9 1-379) MSEQRDSRGMPQAGFIIEHQSSDHKWKVLRNIYSGPFSDVYVVADTVTNEKYAMKCERQEGNSRPVLKLDVMVLMATKGLRGFPNFVAAGRTDVYRYCIMQLVGPDLGRLRRTRPERKFSLPTALQILGQTLRRLEDLHNCGWLCRDVKAPNFCIGVGENESTVYILDFGFARKFVDKEGKIIPPRTAAALMGTFQYCAVSAHSHKDQCARDDLESWFYMGIELLKGPLPWANIDGHKNHKQIGEAKVAIRSEPLRSEFFEGVPKQFNEILTILDQTSYFDRPNYKKLGDLLSQAATEHQVTLKEPLDWQNNERMQQKAIFVGELGESHQASAKLDAKDNANESMDIEFDDMPPKEGISKSLSAEKSCTKNVETARTEK	no binding

Second part, the binder after the results:

binding	Binder
no binding	SPE-27 (protein, UniProt P54218 18-131) TKTENNFDINDVENKACQYGCGFENVRRTSFRKTYDILYTCSECSTLFDLCIKYRTCQDGCVPEMPVLPYDQAKDVSARIRPPMNPCLDLVTACNYESMDSYEILRSENPFLYI
no binding	SPE-8 (protein, UniProt O01798 1-512) MRSKSSEGDLQPEDTQSREDKETTATYSEDTKPETQKERNAALDNLAKTPIQLVVQPTPLTPAITPCEAPPPPPPPKPSSDNNNSKRLKVKDQLIEVPSDEVGRVENNIDNFPFYHGFMGRNECEAMLSNHGDFLIRMTEIGKRVAYVISIKWKYQNIHVLVKRTKTKKLYWTKKYAFKSICELIAYHKRNHKPIYEGMTLICGLARHGWQLNNEQVTLNKKLGEGQFGEVHKGSLKTSVFAAPVTVAVKTLHQNHLSANEKILFLREANVMLTLSHPNVIKFYGVCTMKEPIMIVMEFCDGKSLEDALLSKEEKVSAEDKILYLFHAACGIDYLHGKQVIHRDIAARNCLLNSKKILKISDFGLSVKGVAIKERKGGCLPVKYMAPETLKKGLYSTASDIYSYGALMYEVYTDGKTPFETCGLRGNELRKAIIGKRISLAVEVELPVFIANIFEQSRQYETEDRISSKQIIQIFKEEVGFHEIETSGILHKLVNSLPRIHNKERKPAAVAV
